Measurements from article PMC5487319 (Scientific Reports, 2017).
These are yes or no findings as the source states them, for the method shown. In cells and extracts the contact can be indirect. Some entries that bind do so weakly or less than the wild type. Tags and fused reporters may be left off the sequences shown.

The chains behind the UniProt entries cited, without tags or fusion partners. Residues count along the entry.
UniProt P17948, residues 27-1338: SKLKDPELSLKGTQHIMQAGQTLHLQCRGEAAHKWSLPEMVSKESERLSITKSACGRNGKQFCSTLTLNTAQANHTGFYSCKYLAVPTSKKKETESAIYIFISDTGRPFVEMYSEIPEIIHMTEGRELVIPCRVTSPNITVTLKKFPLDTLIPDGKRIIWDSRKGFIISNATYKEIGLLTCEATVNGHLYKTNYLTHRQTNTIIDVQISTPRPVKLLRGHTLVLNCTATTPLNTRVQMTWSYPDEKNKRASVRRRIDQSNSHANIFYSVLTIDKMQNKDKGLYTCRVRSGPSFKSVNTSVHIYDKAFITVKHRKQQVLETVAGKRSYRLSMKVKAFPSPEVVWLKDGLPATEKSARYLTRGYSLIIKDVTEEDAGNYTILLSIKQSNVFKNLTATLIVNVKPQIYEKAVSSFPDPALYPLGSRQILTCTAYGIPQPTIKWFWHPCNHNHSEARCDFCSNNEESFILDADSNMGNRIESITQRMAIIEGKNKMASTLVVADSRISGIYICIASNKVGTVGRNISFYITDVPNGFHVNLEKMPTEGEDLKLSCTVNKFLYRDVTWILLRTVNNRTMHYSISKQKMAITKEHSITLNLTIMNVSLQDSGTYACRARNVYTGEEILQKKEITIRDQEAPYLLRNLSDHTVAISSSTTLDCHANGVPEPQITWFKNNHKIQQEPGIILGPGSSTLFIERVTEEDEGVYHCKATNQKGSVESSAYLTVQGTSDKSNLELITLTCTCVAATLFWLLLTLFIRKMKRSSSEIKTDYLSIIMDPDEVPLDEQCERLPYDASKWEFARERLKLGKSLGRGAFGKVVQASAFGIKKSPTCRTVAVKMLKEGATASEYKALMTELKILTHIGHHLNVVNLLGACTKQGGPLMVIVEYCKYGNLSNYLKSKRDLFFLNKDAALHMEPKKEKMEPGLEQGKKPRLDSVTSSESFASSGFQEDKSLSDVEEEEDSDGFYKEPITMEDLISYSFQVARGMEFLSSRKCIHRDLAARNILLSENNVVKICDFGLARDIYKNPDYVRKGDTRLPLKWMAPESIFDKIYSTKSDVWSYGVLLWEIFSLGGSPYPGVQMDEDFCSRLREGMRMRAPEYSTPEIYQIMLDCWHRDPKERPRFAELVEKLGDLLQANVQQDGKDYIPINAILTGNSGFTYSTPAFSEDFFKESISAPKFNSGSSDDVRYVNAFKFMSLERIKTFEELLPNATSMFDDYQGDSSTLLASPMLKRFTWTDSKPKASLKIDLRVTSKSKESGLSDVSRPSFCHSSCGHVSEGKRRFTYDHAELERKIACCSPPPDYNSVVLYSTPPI

T1: GST-…
T1 sequence: QKRKRKKSRKKH

T2: GST-…
T2 sequence: RKRKRKKSRYIVLS


Key:
[1] = molecular target: T1, GST-…; assay: co-IP; purified GST-peptide (80 or 185 nmol/L) added to A549 cells for 12 h, cells lysed, 600 ug protein precipitated with anti-GST antibody, blot for VEGFR-1; IgG as negative group; only the target purified
[2] = molecular target: T2, GST-…; assay: as above; remark: listed apart in the source
[3] = molecular target: VEGFR-1 (human (endogenous in A549)) (UniProt P17948); assay: co-IP; reversed co-IP: purified GST-peptide (80 or 185 nmol/L) added to A549 cells for 12 h, cells lysed, 600 ug protein precipitated with anti-VEGFR-1 antibody, blot for GST-peptide; IgG as negative group; only the binder purified

| binding [1] | binding [2] | binding [3] | Molecule |
| --- | --- | --- | --- |
| binds | binds |  | VEGFR-1 (from UniProt P17948 27-1338) (receptor) |
|  |  | binds | RKRKRKKSRYIVLS (core motif RKRKKSR kept; also called non-labeled peptide; source: synthetic peptide (ChinaPeptides Co., Ltd., SPPS, HPLC purified)) |
|  |  | binds | QKRKRKKSRKKH (core motif RKRKKSR kept; also called non-labeled peptide; source: synthetic peptide (ChinaPeptides Co., Ltd., SPPS, HPLC purified)) |
